The values below come from article PMC3879260.

Amino acid sequences for entries named in this document (tags omitted).
UniProt P19659: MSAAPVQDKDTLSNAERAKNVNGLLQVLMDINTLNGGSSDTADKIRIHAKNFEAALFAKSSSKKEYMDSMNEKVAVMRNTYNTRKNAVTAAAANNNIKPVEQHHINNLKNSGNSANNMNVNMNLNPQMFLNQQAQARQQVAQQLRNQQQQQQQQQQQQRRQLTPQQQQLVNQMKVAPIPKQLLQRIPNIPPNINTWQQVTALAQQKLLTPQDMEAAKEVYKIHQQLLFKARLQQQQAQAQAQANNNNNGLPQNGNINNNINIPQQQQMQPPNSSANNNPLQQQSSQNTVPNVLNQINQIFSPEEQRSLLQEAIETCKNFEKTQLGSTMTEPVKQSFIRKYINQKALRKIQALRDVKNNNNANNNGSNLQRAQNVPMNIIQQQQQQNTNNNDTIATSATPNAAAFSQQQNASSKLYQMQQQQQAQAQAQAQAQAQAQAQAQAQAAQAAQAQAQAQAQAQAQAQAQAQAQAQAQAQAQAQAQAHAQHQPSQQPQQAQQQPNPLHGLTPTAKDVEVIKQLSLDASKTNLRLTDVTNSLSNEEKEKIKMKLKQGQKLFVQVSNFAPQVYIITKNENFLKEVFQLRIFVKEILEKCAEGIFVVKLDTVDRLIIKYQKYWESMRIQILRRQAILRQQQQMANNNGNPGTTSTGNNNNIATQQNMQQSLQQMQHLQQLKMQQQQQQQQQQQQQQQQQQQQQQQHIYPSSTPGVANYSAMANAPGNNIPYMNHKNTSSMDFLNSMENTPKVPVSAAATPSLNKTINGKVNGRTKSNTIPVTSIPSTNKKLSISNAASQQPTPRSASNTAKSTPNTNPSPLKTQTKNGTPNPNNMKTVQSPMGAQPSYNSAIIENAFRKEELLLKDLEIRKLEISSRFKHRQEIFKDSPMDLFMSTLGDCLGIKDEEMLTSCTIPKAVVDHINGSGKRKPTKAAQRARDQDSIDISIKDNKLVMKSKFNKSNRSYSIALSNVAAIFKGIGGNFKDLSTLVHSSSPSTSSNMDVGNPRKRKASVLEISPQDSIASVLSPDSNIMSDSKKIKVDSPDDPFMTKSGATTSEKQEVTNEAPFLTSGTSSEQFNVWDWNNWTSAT
UniProt Q04636: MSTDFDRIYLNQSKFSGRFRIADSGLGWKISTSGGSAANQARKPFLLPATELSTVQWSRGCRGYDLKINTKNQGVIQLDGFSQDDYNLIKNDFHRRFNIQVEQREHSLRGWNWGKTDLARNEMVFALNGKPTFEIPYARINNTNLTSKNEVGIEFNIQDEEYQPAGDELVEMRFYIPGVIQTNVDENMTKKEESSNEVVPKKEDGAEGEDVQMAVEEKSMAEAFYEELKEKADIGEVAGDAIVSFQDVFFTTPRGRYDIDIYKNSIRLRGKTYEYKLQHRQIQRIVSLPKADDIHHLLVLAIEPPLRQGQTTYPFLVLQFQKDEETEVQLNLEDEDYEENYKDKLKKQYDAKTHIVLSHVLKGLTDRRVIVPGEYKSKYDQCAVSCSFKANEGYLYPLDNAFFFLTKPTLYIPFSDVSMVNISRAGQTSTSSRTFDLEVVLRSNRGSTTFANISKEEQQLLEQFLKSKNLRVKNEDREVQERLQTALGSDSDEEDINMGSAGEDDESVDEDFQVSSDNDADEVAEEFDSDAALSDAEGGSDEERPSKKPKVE

These are yes or no findings as the source states them, for the method shown. Binding seen in cells or lysates may run through a third protein. Here binding means that the protein was enriched with, or labelled near, the bait; the list need not be complete. Where a sequence is shown, tags or fusion partners need not be part of it.

This assay concerns the target T1, GST-Pdr1 activation domain (amino acids 966-1068) (S. cerevisiae) (UniProt P12383).
T1 sequence: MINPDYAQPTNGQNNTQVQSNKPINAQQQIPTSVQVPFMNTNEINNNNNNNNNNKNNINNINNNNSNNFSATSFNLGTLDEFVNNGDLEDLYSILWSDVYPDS
Nature of the assay: affinity purification with mass spectrometry; glutathione-Sepharose-bound GST-Pdr1-AD incubated 3 h at 4°C with yeast extract (lysis buffer 50 mM Tris-HCl pH 8.0, 400 mM NaCl) pre-incubated with GST beads; washes with 250 mM KCl buffer, then 150 mM NaCl; elution with 0.3% sarkosyl; gel bands identified by LC-MS/MS; only the target purified.

As to “Gal11 subunit of Mediator (from UniProt P19659 1-1081)”, the binding result is given as “binds”.

Take “Pob3 subunit of FACT (from UniProt Q04636 1-552)”: the binding result is on record as “binds”.
